Data as given in PubChem BioAssay AID743121 (NCATS, 2013)
This is a random part of about 26,000 reagents. 167 of them (0.63%) count as active. 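Calls are per gene from RSA p-values that are not deposited; an individual active-marked siRNA can sensitise only weakly.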 Reagents against one gene are numbered here. Not all columns of the deposit are shown.

Screen: 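Partners whose loss is lethal together with topoisomerase I blockade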 (primary screen)
System: MDA-MB-231 cells, a human breast cancer line
Reagent: single siRNA against human genes, 20 nM siRNA (0.8 pmol per well)
Time to read-out: 120 h (drug added 48 h after transfection, read 72 h later)
Treatment: camptothecin 20 nM (about EC30) for 72 h; vehicle 0.1% DMSO in parallel plates
Read-out: 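CellTiter-Glo ATP signal, scaled to control siRNA as percent viability; sensitisation given as log2 of untreated divided by camptothecin-treated viability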
Scale: log2 vehicle/camptothecin viability: higher = stronger sensitisation to camptothecin; viability with camptothecin: higher = more viable cells
Units: viability with camptothecin in % of control
Active means: 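Each gene scored by redundant siRNA activity (RSA) over its individual siRNA ratios; a gene is called active at p < 0.001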

PPP3CA (protein phosphatase 3 catalytic subunit alpha) #1
- log2 vehicle/camptothecin viability: -0.174
- viability with camptothecin: 113
- Outcome: inactive

PPP3CA (protein phosphatase 3 catalytic subunit alpha) #2
- log2 vehicle/camptothecin viability: -0.569
- viability with camptothecin: 81.9
- Outcome: inactive

PPP3CA (protein phosphatase 3 catalytic subunit alpha) #3
- log2 vehicle/camptothecin viability: -0.305
- viability with camptothecin: 73.4
- Outcome: inactive

PPP3CA (protein phosphatase 3 catalytic subunit alpha) #4
- log2 vehicle/camptothecin viability: -0.216
- viability with camptothecin: 67.9
- Outcome: inactive

FCAMR (Fc alpha and mu receptor) #1
- log2 vehicle/camptothecin viability: -0.275
- viability with camptothecin: 110
- Outcome: inactive

FCAMR (Fc alpha and mu receptor) #2
- log2 vehicle/camptothecin viability: -0.13
- viability with camptothecin: 105
- Outcome: inactive

FCAMR (Fc alpha and mu receptor) #3
- log2 vehicle/camptothecin viability: -0.235
- viability with camptothecin: 99.1
- Outcome: inactive

FCAMR (Fc alpha and mu receptor) #4
- log2 vehicle/camptothecin viability: 0.398
- viability with camptothecin: 13.6
- Outcome: inactive

CCL3 (C-C motif chemokine ligand 3) #1
- log2 vehicle/camptothecin viability: -0.084
- viability with camptothecin: 68.6
- Outcome: inactive

CCL3 (C-C motif chemokine ligand 3) #2
- log2 vehicle/camptothecin viability: -0.00146
- viability with camptothecin: 117
- Outcome: inactive

CCL3 (C-C motif chemokine ligand 3) #3
- log2 vehicle/camptothecin viability: 0.946
- viability with camptothecin: 13.5
- Outcome: inactive

CCL3 (C-C motif chemokine ligand 3) #4
- log2 vehicle/camptothecin viability: 0.31
- viability with camptothecin: 31
- Outcome: inactive

CCL3 (C-C motif chemokine ligand 3) #5
- log2 vehicle/camptothecin viability: 0.00347
- viability with camptothecin: 97.3
- Outcome: inactive

Records listed so far whose gene name begins with P or p (4):
PPP3CA (protein phosphatase 3 catalytic subunit alpha) #1
- log2 vehicle/camptothecin viability: -0.174
- viability with camptothecin: 113
- Outcome: inactive

PPP3CA (protein phosphatase 3 catalytic subunit alpha) #2
- log2 vehicle/camptothecin viability: -0.569
- viability with camptothecin: 81.9
- Outcome: inactive

PPP3CA (protein phosphatase 3 catalytic subunit alpha) #3
- log2 vehicle/camptothecin viability: -0.305
- viability with camptothecin: 73.4
- Outcome: inactive

PPP3CA (protein phosphatase 3 catalytic subunit alpha) #4
- log2 vehicle/camptothecin viability: -0.216
- viability with camptothecin: 67.9
- Outcome: inactive

Next reagents follow:
PGLYRP2 (peptidoglycan recognition protein 2) #1
- log2 vehicle/camptothecin viability: -0.0835
- viability with camptothecin: 90.8
- Outcome: inactive

PGLYRP2 (peptidoglycan recognition protein 2) #2
- log2 vehicle/camptothecin viability: -0.513
- viability with camptothecin: 74.8
- Outcome: inactive

PGLYRP2 (peptidoglycan recognition protein 2) #3
- log2 vehicle/camptothecin viability: 0.472
- viability with camptothecin: 54.9
- Outcome: inactive

PGLYRP2 (peptidoglycan recognition protein 2) #4
- log2 vehicle/camptothecin viability: -1.1
- viability with camptothecin: 83.9
- Outcome: inactive

PPP1R15A (protein phosphatase 1 regulatory subunit 15A) #1
- log2 vehicle/camptothecin viability: -0.261
- viability with camptothecin: 39.8
- Outcome: inactive

PPP1R15A (protein phosphatase 1 regulatory subunit 15A) #2
- log2 vehicle/camptothecin viability: -0.278
- viability with camptothecin: 96.5
- Outcome: inactive

PPP1R15A (protein phosphatase 1 regulatory subunit 15A) #3
- log2 vehicle/camptothecin viability: -0.363
- viability with camptothecin: 34
- Outcome: inactive

PPP1R15A (protein phosphatase 1 regulatory subunit 15A) #4
- log2 vehicle/camptothecin viability: -0.247
- viability with camptothecin: 112
- Outcome: inactive

FLRT3 (fibronectin leucine rich transmembrane protein 3) #1
- log2 vehicle/camptothecin viability: -0.387
- viability with camptothecin: 133
- Outcome: inactive

FLRT3 (fibronectin leucine rich transmembrane protein 3) #2
- log2 vehicle/camptothecin viability: -0.335
- viability with camptothecin: 95.8
- Outcome: inactive

FLRT3 (fibronectin leucine rich transmembrane protein 3) #3
- log2 vehicle/camptothecin viability: -0.286
- viability with camptothecin: 88.8
- Outcome: inactive

FLRT3 (fibronectin leucine rich transmembrane protein 3) #4
- log2 vehicle/camptothecin viability: -0.491
- viability with camptothecin: 111
- Outcome: inactive
